{"source": "PubChem BioAssay AID652259 (Drosophila RNAi Screening Center, 2013)", "aim": "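Genome-wide hunt for genes that control Wingless pathway activity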 (primary screen)", "system": "Drosophila clone 8 imaginal disc epithelial cells", "reagent": "long dsRNA against Drosophila genes", "challenge": "pathway stimulated by co-transfected Wingless expression plasmid", "detection": "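Dual luciferase reads per well after Wingless plasmid stimulation: reporter firefly light and Renilla control light; activity is firefly divided by Renilla, a ratio not deposited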", "reading the numbers": "firefly reporter light: higher = more Wg reporter light, before normalisation; Renilla control light: higher = more transfected or surviving cells", "active means": "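a knock-down is a candidate when at least two out of four statistical tests show it departing from its plate mean; one test alone signals a weak candidate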", "calls": "active = candidate regulator (raises or lowers reporter); inactive = not a candidate", "note": "The screen tested about 22,000 reagents; this is a random part of those with a known target gene and a result. In the full data, 233 (1.1%) got an active call. 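Light values are raw, unnormalised plate reads; the ratio scores behind the reporter calls were not deposited.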 A number with no mark means an inactive call. Names joined by + are all predicted targets of the reagent. No sequences are given here. Not stated in the record: the amount of reagent, the time to read-out, the dose of the treatment."}
{"Target gene": "CG9154", "DRSC id": "DRSC03150", "firefly reporter light, replicate 1": 7728, "Renilla control light, replicate 1": 3899}
{"Target gene": "CG1344", "DRSC id": "DRSC04837", "firefly reporter light, replicate 1": 8844, "Renilla control light, replicate 1": 3044}
{"Target gene": "CG3176 + CR18166 + CG32817", "DRSC id": "DRSC17271", "firefly reporter light, replicate 1": 2249, "Renilla control light, replicate 1": 1120}
{"Target gene": "CG3176 + CR18166 + CG32817", "DRSC id": "DRSC17282", "firefly reporter light, replicate 1": 2903, "Renilla control light, replicate 1": 960}
{"Target gene": "CG3176 + CR18166 + CG32817", "DRSC id": "DRSC18288", "firefly reporter light, replicate 1": 2248, "firefly reporter light, replicate 2": 5324, "Renilla control light, replicate 1": 928, "Renilla control light, replicate 2": 1828}
{"Target gene": "Or45a (Odorant receptor 45a)", "DRSC id": "DRSC07487", "firefly reporter light, replicate 1": 2204, "firefly reporter light, replicate 2": 7415, "Renilla control light, replicate 1": 541, "Renilla control light, replicate 2": 1011}
{"Target gene": "sta (stubarista)", "DRSC id": "DRSC18838", "firefly reporter light, replicate 1": 19848, "Renilla control light, replicate 1": 14150}
{"Target gene": "CG13930", "DRSC id": "DRSC08399", "firefly reporter light, replicate 1": 7738, "Renilla control light, replicate 1": 2505}
{"Target gene": "CG13965", "DRSC id": "DRSC02307", "firefly reporter light, replicate 1": 3285, "firefly reporter light, replicate 2": 5690, "Renilla control light, replicate 1": 688, "Renilla control light, replicate 2": 2476}
{"Target gene": "PIG-H + Kmn2", "DRSC id": "DRSC12653", "firefly reporter light, replicate 1": 3429, "Renilla control light, replicate 1": 1280}
{"Target gene": "rush (rush hour)", "DRSC id": "DRSC18568", "firefly reporter light, replicate 1": 3786, "firefly reporter light, replicate 2": 10897, "Renilla control light, replicate 1": 1946, "Renilla control light, replicate 2": 3836}
{"Target gene": "Chs2 (Chitin synthase 2)", "DRSC id": "DRSC11830", "firefly reporter light, replicate 1": 8537, "Renilla control light, replicate 1": 2788}
{"Target gene": "CG10527", "DRSC id": "DRSC04078", "firefly reporter light, replicate 1": 12410, "Renilla control light, replicate 1": 3248}

The list goes on, starting with the last 3 of the part before.
{"Target gene": "rush (rush hour)", "DRSC id": "DRSC18568", "firefly reporter light, replicate 1": 3786, "firefly reporter light, replicate 2": 10897, "Renilla control light, replicate 1": 1946, "Renilla control light, replicate 2": 3836}
{"Target gene": "Chs2 (Chitin synthase 2)", "DRSC id": "DRSC11830", "firefly reporter light, replicate 1": 8537, "Renilla control light, replicate 1": 2788}
{"Target gene": "CG10527", "DRSC id": "DRSC04078", "firefly reporter light, replicate 1": 12410, "Renilla control light, replicate 1": 3248}
{"Target gene": "CPT2 (Carnitine palmitoyltransferase 2)", "DRSC id": "DRSC08553", "firefly reporter light, replicate 1": 18679, "Renilla control light, replicate 1": 6473}
{"Target gene": "ND-51L2 (NADH dehydrogenase (ubiquinone) 51 kDa subunit-like 2)", "DRSC id": "DRSC07080", "firefly reporter light, replicate 1": 6810, "Renilla control light, replicate 1": 2004}
{"Target gene": "CG42673", "DRSC id": "DRSC08989", "firefly reporter light, replicate 1": 2164, "Renilla control light, replicate 1": 1194}
{"Target gene": "CG42673", "DRSC id": "DRSC08991", "firefly reporter light, replicate 1": 3869, "Renilla control light, replicate 1": 409}
{"Target gene": "CG42673", "DRSC id": "DRSC10177", "firefly reporter light, replicate 1": 8298, "Renilla control light, replicate 1": 2299}
{"Target gene": "CG42673", "DRSC id": "DRSC10264", "firefly reporter light, replicate 1": 4924, "Renilla control light, replicate 1": 2659}
{"Target gene": "CG42673", "DRSC id": "DRSC10353", "firefly reporter light, replicate 1": 10291, "Renilla control light, replicate 1": 4880}
{"Target gene": "CG42673", "DRSC id": "DRSC10354", "firefly reporter light, replicate 1": 8923, "Renilla control light, replicate 1": 4103}
{"Target gene": "gro (groucho)", "DRSC id": "DRSC16962", "firefly reporter light, replicate 1": 1652, "firefly reporter light, replicate 2": 5019, "Renilla control light, replicate 1": 987, "Renilla control light, replicate 2": 2277}
{"Target gene": "CG13613", "DRSC id": "DRSC14616", "firefly reporter light, replicate 1": 17537, "Renilla control light, replicate 1": 14144}
{"Target gene": "CG17124", "DRSC id": "DRSC02580", "firefly reporter light, replicate 1": 4066, "firefly reporter light, replicate 2": 8563, "Renilla control light, replicate 1": 1731, "Renilla control light, replicate 2": 4385}
{"Target gene": "beg (bad egg)", "DRSC id": "DRSC10923", "firefly reporter light, replicate 1": 2800, "Renilla control light, replicate 1": 1569}
